Test results published in PubChem BioAssay AID624415 (National Center for Advancing Translational Sciences (NCATS), 2012).
In all, about 390,000 compounds went through this assay and about 60 (0.02%) were called active. Inconclusive means that the source gave no clear call. Such entries were picked first, then a sample of the others. Cut-off read from the data, not from the text of the source: active = activity change below about -50%; inconclusive = between about -30% and that limit; inactive = weaker than that.
% is set by controls: 0 for no effect and ±100 for the full control effect.
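Note: stimulus is agonist 54-4 at its EC80 concentration.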

The chains behind the UniProt entries cited, without tags or fusion partners.
UniProt Q9GZU1, whole entry: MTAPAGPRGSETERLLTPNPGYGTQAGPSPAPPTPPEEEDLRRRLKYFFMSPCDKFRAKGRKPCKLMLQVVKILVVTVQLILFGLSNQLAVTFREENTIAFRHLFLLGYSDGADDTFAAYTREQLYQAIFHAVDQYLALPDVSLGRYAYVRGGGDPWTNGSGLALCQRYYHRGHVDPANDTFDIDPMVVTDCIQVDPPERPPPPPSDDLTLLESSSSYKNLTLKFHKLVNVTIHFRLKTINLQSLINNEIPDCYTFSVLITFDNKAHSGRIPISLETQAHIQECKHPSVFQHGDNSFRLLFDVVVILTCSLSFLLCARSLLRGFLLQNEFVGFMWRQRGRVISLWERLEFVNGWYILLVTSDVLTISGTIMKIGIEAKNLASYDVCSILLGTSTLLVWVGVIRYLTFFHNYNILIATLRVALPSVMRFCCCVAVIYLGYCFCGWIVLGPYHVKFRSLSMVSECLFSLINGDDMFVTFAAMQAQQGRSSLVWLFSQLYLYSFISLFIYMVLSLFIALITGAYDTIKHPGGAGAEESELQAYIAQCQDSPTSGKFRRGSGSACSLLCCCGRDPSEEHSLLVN

What follows are molecules tested against Mucolipin-1 (Homo sapiens) (UniProt Q9GZU1) (assay: qHTS for Inhibitors of the Human Mucolipin Transient Receptor Potential 1 (TRPML1)). Conditions: TRPML1-inducible cells, Ca2+ dye fluorescence, FDSS, stronger effect = lower value.
From the text: Mutations of human Mucolipin transient receptor potential 1 (TRPML1) cause type IV mucolipidosis (ML4), a devastating neurodegenerative disease in young children. […] Currently, there is no treatment for ML4. […] Under physiological conditions, TRPMLs regulate membrane trafficking by transducing information about PI(3,5)P2 levels into changes in juxtaorganellar Ca2+, thereby triggering membrane fusion/fission events in the late endocytic pathways (endolysosomal trafficking). In addition, TRPML1 mediates release of Fe2+ from late endosomes and lysosomes, which is essential for cellular iron metabolism. Thus, impaired ion (Ca2+ and Fe2+) homeostasis underlies lysosomal dysfunction and ML4 phenotypes. In ML4 cells, the problem is twofold. First, defective Ca2+-dependent membrane trafficking due to TRPML1-deficiency causes accumulation of lipids and other bio-materials in the lysosome. The second strike comes from the lysosomal iron overload (due to impairment of TRPML1's Fe2+ conductivity), which converts the accumulated materials into the nondegradable (resistant to lysosomal degradation) lipofuscin (also called aging pigment) in the lysosome. Lipofuscin accumulation dramatically compromises the functions of lysosomes.
Niemann-Pick type C (NPC) disease is another lysosome storage disease (LSD) with severe neurodegeneration during the childhood. Currently, there is no cure for NPC. […] Thus, TRPML1 is likely to be an essential regulator of lysosome ion homeostasis. We specifically hypothesize that stimulating TRPML1's Fe2+/Ca2+ channel activity in the lysosome using synthetic agonists can alleviate neurodegeneration associated with ML4 or NPC.
To this end, a high throughput screen was developed in a miniaturized format to screen against the Molecular Libraries Small Molecule Repository (MLSMR) to find small molecules that act either as inhibitors or agonist against the TRPML1 channel.
NIH Chemical Genomics Center [NCGC]
NIH Molecular Libraries Probe Centers Network [MLPCN]
Assay Submitter (PI): Haoxing Xu, University of Michigan Ann Arbor
TRPML1-DL cells are dissociated from flasks, counted and, brought up to a density of 500,000 cells per mL of media containing a 1X Tet inducer. Using a Multidrop Combi, 3 uL of this cell solution is dispensed to each well of a 1536 TC treated, black, clear bottom hi base plate for a final cell density of 1,500 cells per well. The assay plates are incubated overnight (approximately 16 hours) at 37 degrees C and 5% CO2. Using a Multidrop Combi, 2 uL of ABD Ca8 no wash dye plus quencher is added to each well. The assay plates incubate at room temperature in the dark for 45-90 minutes. The assay plate is read on the FDSS using the following protocol: 10 second baseline read, 23 nL of compounds and controls are added using 1536 pintool, agonist read for 110 seconds, 1 uL EC80 addition (4 uM final 54-4 diluted in media), antagonist read for 110 seconds.
In the case of C[C@H]1[C@@H](OS(=O)(=O)O)C[C@@H]2C[C@H]([C@@H](O)c3cc(=O)[nH]c(=O)[nH]3)NC3=NC[C@H]1N32, the activity change, negative = inhibition is reported as inactive: 1.31%.
For Cc1ccc(OC(=O)N(C)C[C@@H]2OCc3cnnn3CCCC(=O)N([C@H](C)CO)C[C@@H]2C)cc1, the activity change, negative = inhibition was inconclusive: -38.8% [inhibition of EC80 agonist-evoked calcium signal].
In the case of CC(=NCCc1c[nH]c2ccccc12)c1c(O)n(Cc2ccccc2)c(=O)[nH]c1=O, the activity change, negative = inhibition is reported as inactive: 3.71%.
With CN(C)CCSCc1nnc2n1-c1ccc(Cl)cc1C(c1ccccc1Cl)=NC2 the activity change, negative = inhibition was inconclusive: -32.1%.
For Cc1ccsc1C(=O)C1CCCN(Cc2cccc(-n3cccn3)c2)C1 (centres undefined), the activity change, negative = inhibition was inactive: -17.7%.
With O=c1c2ccccc2nc(-c2ccccc2F)n1-c1ccccc1 the activity change, negative = inhibition was inactive: -7.07%.
In the case of O=c1c2ccccc2nc(-c2ccccc2)n1-c1ccc(O)cc1, the activity change, negative = inhibition is reported as inconclusive: -32.4%.
COc1ccccc1/C=C1\C(=O)NC(=S)N(c2ccccc2)C1=O was tested, and the activity change, negative = inhibition was inconclusive: -39.5%.
COc1ccc(OC)c(/C=N/OC(=O)Nc2ccc(Cl)cc2)c1 was tested, and the activity change, negative = inhibition was inactive: 9.53%.
With COc1ccc(CN(CCc2c[nH]c3ccccc23)Cc2ccc(OC)cc2)cc1 the activity change, negative = inhibition was inactive: 5.82%.
With c1ccc(Nc2ccc(Nc3ccccc3)cc2)cc1 the activity change, negative = inhibition was inactive: -4.1%.
For C#CCN1CCN(c2ccc(F)cc2)CC1, the activity change, negative = inhibition was inactive: 12.7%.
For CCN(CC)C(=O)N[C@H]1C[C@@H]2c3cccc4[nH]cc(c34)C[C@H]2N(C)C1, the activity change, negative = inhibition was inactive: -16.9%.
For COc1ccc2c(c1OC)CN1CCc3cc4c(cc3C1C2)OCO4 (centres undefined), the activity change, negative = inhibition was inactive: 4.64%.
With CC1=C(C)CC2(C(=O)NC(=S)NC2=O)C(C)C1 (centres undefined) the activity change, negative = inhibition was inconclusive: -31.6%.
In the case of CNC(=S)N/N=C1\C2CN3CCN(C2)CC1(c1ccccc1)C3, the activity change, negative = inhibition is reported as inconclusive: -36.5% [inhibition of EC80 agonist-evoked calcium signal].
CC(C)c1ccc(N=Nc2c(O)[nH]c(=O)[nH]c2=O)cc1 was tested, and the activity change, negative = inhibition was inconclusive: -30.2%.
In the case of Cn1cccc1/C=C1\C(=O)NC(=O)N(Cc2ccccc2Cl)C1=O, the activity change, negative = inhibition is reported as inactive: 17.3%.
In the case of OC1/C(=C/c2ccc(F)cc2)N2CCC1CC2 (centres undefined), the activity change, negative = inhibition is reported as inconclusive: -39.8% [inhibition of EC80 agonist-evoked calcium signal].
CCn1c(O)c(C=Nc2ccc(S(N)(=O)=O)cc2)c(=O)[nH]c1=S was tested, and the activity change, negative = inhibition was inconclusive: -32.6%.
In the case of C=CCC1(Nc2ccccc2)CC(C)N(C)CC1C (centres undefined), the activity change, negative = inhibition is reported as inconclusive: -30.1% [inhibition of EC80 agonist-evoked calcium signal].
In the case of CC12CC1(C)C(=O)N(c1cc(Cl)cc(Cl)c1)C2=O (centres undefined), the activity change, negative = inhibition is reported as inactive: -1.89%.
ClC1=C(Cl)C2(Cl)C3C(Cl)C=CC3C1(Cl)C2(Cl)Cl (centres undefined) was tested, and the activity change, negative = inhibition was inactive: 2.36%.
In the case of Cc1ccc(N2C(=O)NC(=O)/C(=C/c3ccc(-c4ccc(C(=O)O)c(Cl)c4)o3)C2=O)cc1, the activity change, negative = inhibition is reported as inactive: -10.1%.
With c1ccc2sc(NC3=NCCN3)nc2c1 the activity change, negative = inhibition was inactive: -12.9%.
C#CCN(C)C(C)Cc1ccccc1 (centres undefined) was tested, and the activity change, negative = inhibition was inconclusive: -30.3%.
With c1cc2c(cc1CN1CCNCC1)OCO2 the activity change, negative = inhibition was inactive: -11.8%.
For COC(=O)C1=C(c2ccc(F)cc2OCc2ccccc2)C[C@@H]2CC[C@H]1N2C(=O)NCc1ccccc1C(F)(F)F, the activity change, negative = inhibition was inactive: 38.6%.
In the case of Cc1cc(/C=C2\C(=O)NC(=O)N(c3cccc(F)c3)C2=O)c(C)n1-c1ccc(C(=O)O)c(Cl)c1, the activity change, negative = inhibition is reported as inconclusive: -30.7%.
For CCN1CCN(c2ccc([N+](=O)[O-])cc2C(=O)OC)CC1, the activity change, negative = inhibition was inconclusive: -31.1%.
For CC(C)c1ccc(N2C(=O)NC(=O)/C(=C/c3cnc(-c4ccccc4)nc3)C2=O)cc1, the activity change, negative = inhibition was inactive: -3.56%.
For CC1=Nc2ccccc2/C1=C/c1c(O)n(C)c(=O)[nH]c1=O, the activity change, negative = inhibition was inconclusive: -40.7%.
In the case of C=C(C)Cn1c(=O)n(CC2CS2)c2ccccc21 (centres undefined), the activity change, negative = inhibition is reported as inconclusive: -31.4%.
For O=C1C(=O)c2ccccc2-c2ccccc21, the activity change, negative = inhibition was inactive: -4.05%.
For C=C1C(=O)O[C@@H]2C[C@@H](C)[C@@H]3C=CC(=O)[C@@]3(C)[C@@H](OC(=O)CC(=O)O[C@H]3[C@@H]4C(=C)C(=O)O[C@@H]4C[C@@H](C)[C@@H]4C=CC(=O)[C@]43C)[C@H]12, the activity change, negative = inhibition was inactive: 26.3%.
In the case of CCOc1ccc2nc(N=Nc3c(O)[nH]c(=S)[nH]c3=O)sc2c1, the activity change, negative = inhibition is reported as inconclusive: -34.8%.
In the case of c1ccc(CN2CCNCC2)nc1, the activity change, negative = inhibition is reported as inconclusive: -48% [inhibition of EC80 agonist-evoked calcium signal].
With C[N+]1(CC(COCc2ccccc2)OC(=O)Cc2ccccc2)CCOCC1 (centres undefined) the activity change, negative = inhibition was inconclusive: -32%.
In the case of C[C@@H]1CN([C@H](C)CO)C(=O)CCCn2cc(nn2)CO[C@H]1CN(C)C(=O)Oc1ccc2ccccc2c1, the activity change, negative = inhibition is reported as inconclusive: -38%.
With COC(=O)C1=C(c2ccccc2)C[C@@H]2CC[C@H]1N2C(=O)NCc1ccccc1 the activity change, negative = inhibition was inconclusive: -30.1% [inhibition of EC80 agonist-evoked calcium signal].
For CCOC(=O)Cc1csc(NC(=O)c2c(O)c3ccccc3n(CCC(C)C)c2=O)n1, the activity change, negative = inhibition was inconclusive: -30.9% [inhibition of EC80 agonist-evoked calcium signal].
C#CC1(O)CCC2C3CCC4=C/C(=N/OCC(=O)NCC(=O)NC(C(=O)O)C(C)C)CC[C@]4(C)C3CC[C@@]21C (some centres undefined) was tested, and the activity change, negative = inhibition was inconclusive: -35.3% [inhibition of EC80 agonist-evoked calcium signal].
In the case of O=C(COc1ccc(Br)cc1)N1CCN(Cc2ccncc2)CC1, the activity change, negative = inhibition is reported as inconclusive: -45.8% [inhibition of EC80 agonist-evoked calcium signal].
With O=C1C(=Cc2ccccc2)N2CCC1CC2 the activity change, negative = inhibition was inconclusive: -41.9% [inhibition of EC80 agonist-evoked calcium signal].
For Cn1c(O)c(/C=C2\C=c3ccccc3=NC2=O)c(=O)n(C)c1=O, the activity change, negative = inhibition was inconclusive: -34.4%.
CC1NCCC2(O)CCCCC12 (centres undefined) was tested, and the activity change, negative = inhibition was inconclusive: -40.1% [inhibition of EC80 agonist-evoked calcium signal].
CC(C(=O)c1ccccc1)N1C(=O)c2ccccc2C1=O (centres undefined) was tested, and the activity change, negative = inhibition was inactive: 5.43%.
For O=C1NC(=O)C(CCc2ccncc2)(CCc2ccncc2)C(=O)N1CCc1ccccc1, the activity change, negative = inhibition was inconclusive: -33%.
In the case of CCOC(=O)c1cc2c(cn1)[C@H](CCO)NC2, the activity change, negative = inhibition is reported as inactive: 17.1%.
